Experimental findings from article PMC12805590 are described below.

No constants are given. Whether binding was seen depends on the method and setting. Binding seen in cells or lysates may run through a third protein. Here binding means that the protein was enriched with, or labelled near, the bait; the list need not be complete.

The target in this assay is apoptosis-related protein in the transforming growth factor-β signaling pathway (ARTS) (human (endogenous in MDA-MB-231)). The assay is described as follows: affinity purification with mass spectrometry; co-IP of endogenous ARTS from MDA-MB-231 cells treated with PBS, DOX or DTX, then LC-MS/MS; proteins present in the DOX/DTX groups but absent in PBS.

B1: Livin (BIRC7) (protein, UniProt Q96CA5 1-298)
chain: MGPKDSAKCLHRGPQPSHWAAGDGPTQERCGPRSLGSPVLGLDTCRAWDHVDGQILGQLRPLTEEEEEEGAGATLSRGPAFPGMGSEELRLASFYDWPLTAEVPPELLAAAGFFHTGHQDKVRCFFCYGGLQSWKRGDDPWTEHAKWFPSCQFLLRSKGRDFVHSVQETHSQLLGSWDPWEEPEDAAPVAPSVPASGYPELPTPRREVQSESAQEPGGVSPAEAQRAWWVLEPPGARDVEAQLRRLQEERTCKVCLDRAVSIVFVPCGHLVCAECAPGLQLCPICRAPVRSRVRTFLS
On to B1, for which the binding result is given as “binds”.

B2: seven in absentia homolog 1 (SIAH1) (enzyme, UniProt Q8IUQ4 1-282)
chain: MSRQTATALPTGTSKCPPSQRVPALTGTTASNNDLASLFECPVCFDYVLPPILQCQSGHLVCSNCRPKLTCCPTCRGPLGSIRNLAMEKVANSVLFPCKYASSGCEITLPHTEKADHEELCEFRPYSCPCPGASCKWQGSLDAVMPHLMHQHKSITTLQGEDIVFLATDINLPGAVDWVMMQSCFGFHFMLVLEKQEKYDGHQQFFAIVQLIGTRKQAENFAYRLELNGHRRRLTWEATPRSIHEGIATAIMNSDCLVFDTSIAQLFAENGNLGINVTISMC
B2: the binding entry is “binds”.
